In publication PMC12331947, “Activation of AKT via a dual mechanism enhances the susceptibility of melanoma cells to glucose deprivation” (Cell Death & Disease, 2025):
Results are given in words; binding and its absence hold for the method and conditions named. For some of these results: In cells and extracts the contact can be indirect. Some results given as binding are weak or reduced against the parent protein; the word gives no strength. For some of these results: Sequences can lack the tags named with a protein. Each block holds one binder with its values, some of them ahead of it.

Amino acid sequences for entries named in this document (tags omitted).
UniProt Q9Y243: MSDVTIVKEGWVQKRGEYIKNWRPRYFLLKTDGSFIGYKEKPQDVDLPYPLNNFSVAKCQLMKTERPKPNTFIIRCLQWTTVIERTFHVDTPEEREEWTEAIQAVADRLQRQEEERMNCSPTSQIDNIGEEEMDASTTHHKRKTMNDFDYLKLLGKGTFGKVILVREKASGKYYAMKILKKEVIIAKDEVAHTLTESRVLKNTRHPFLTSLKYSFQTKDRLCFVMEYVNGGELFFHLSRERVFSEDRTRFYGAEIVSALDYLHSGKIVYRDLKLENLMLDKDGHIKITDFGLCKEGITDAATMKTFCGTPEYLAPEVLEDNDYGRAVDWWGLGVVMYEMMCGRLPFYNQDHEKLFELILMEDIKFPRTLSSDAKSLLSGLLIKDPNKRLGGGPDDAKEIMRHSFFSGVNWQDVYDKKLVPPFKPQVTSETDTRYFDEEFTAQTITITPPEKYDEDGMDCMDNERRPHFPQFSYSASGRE

Key:
[1] = target: T1, PDK1 (exogenous, HA- or Flag-tagged) (human), O15530; assay: co-IP; PDK1-HA with PDK1-Flag in A375 cells, glucose-free medium for 3 h, with or without NAC (5 mM) or GSH (2.5 mM); Triton X-100 lysis buffer, protein A/G agarose, 3 h at 4 °C; settings: remark: other sources report otherwise
T1 chain: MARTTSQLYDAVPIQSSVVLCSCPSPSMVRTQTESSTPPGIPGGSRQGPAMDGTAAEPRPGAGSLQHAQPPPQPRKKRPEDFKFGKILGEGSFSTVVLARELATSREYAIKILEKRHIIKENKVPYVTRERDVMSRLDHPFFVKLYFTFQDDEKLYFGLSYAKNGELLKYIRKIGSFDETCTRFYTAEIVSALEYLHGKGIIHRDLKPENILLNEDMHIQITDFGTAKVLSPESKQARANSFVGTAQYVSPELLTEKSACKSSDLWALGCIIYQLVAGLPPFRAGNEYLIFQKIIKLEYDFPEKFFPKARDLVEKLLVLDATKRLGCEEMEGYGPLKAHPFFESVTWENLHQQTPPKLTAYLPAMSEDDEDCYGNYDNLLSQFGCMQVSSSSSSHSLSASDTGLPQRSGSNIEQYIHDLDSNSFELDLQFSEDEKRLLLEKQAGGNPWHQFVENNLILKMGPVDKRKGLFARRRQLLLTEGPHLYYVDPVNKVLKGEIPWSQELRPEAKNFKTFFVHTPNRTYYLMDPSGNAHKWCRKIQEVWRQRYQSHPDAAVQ

AKT3 (human) = AKT3 (human) (UniProt Q9Y243); assay: co-IP; PDK1 or PDK1^C21/23S with AKT3, control or glucose-deprived cells; Triton X-100 lysis buffer, protein A/G agarose, 3 h at 4 °C
PDK1^C21/23S (human) [2] = target: PDK1^C21/23S (human) (UniProt O15530); assay: co-IP; PDK1-HA with PDK1-Flag in A375 cells, glucose-free medium for 3 h, with or without NAC (5 mM) or GSH (2.5 mM); Triton X-100 lysis buffer, protein A/G agarose, 3 h at 4 °C
PDK1^C21/23S (human) [3] = target: PDK1^C21/23S (human) (UniProt O15530); assay: non-reducing gel and immunoblot; A375 cells in glucose-free medium for 3 h, with or without NAC (5 mM) or GSH (2.5 mM); PDK1 monomer and dimer bands under non-reducing conditions

binding [1]: binds
B1: PDK1 (exogenous, HA- or Flag-tagged), O15530 1-556 (enzyme)
chain: MARTTSQLYDAVPIQSSVVLCSCPSPSMVRTQTESSTPPGIPGGSRQGPAMDGTAAEPRPGAGSLQHAQPPPQPRKKRPEDFKFGKILGEGSFSTVVLARELATSREYAIKILEKRHIIKENKVPYVTRERDVMSRLDHPFFVKLYFTFQDDEKLYFGLSYAKNGELLKYIRKIGSFDETCTRFYTAEIVSALEYLHGKGIIHRDLKPENILLNEDMHIQITDFGTAKVLSPESKQARANSFVGTAQYVSPELLTEKSACKSSDLWALGCIIYQLVAGLPPFRAGNEYLIFQKIIKLEYDFPEKFFPKARDLVEKLLVLDATKRLGCEEMEGYGPLKAHPFFESVTWENLHQQTPPKLTAYLPAMSEDDEDCYGNYDNLLSQFGCMQVSSSSSSHSLSASDTGLPQRSGSNIEQYIHDLDSNSFELDLQFSEDEKRLLLEKQAGGNPWHQFVENNLILKMGPVDKRKGLFARRRQLLLTEGPHLYYVDPVNKVLKGEIPWSQELRPEAKNFKTFFVHTPNRTYYLMDPSGNAHKWCRKIQEVWRQRYQSHPDAAVQ

binding (AKT3 (human)): binds
B2: PDK1 (exogenous, HA- or Flag-tagged) (enzyme, UniProt O15530 1-556)
chain: MARTTSQLYDAVPIQSSVVLCSCPSPSMVRTQTESSTPPGIPGGSRQGPAMDGTAAEPRPGAGSLQHAQPPPQPRKKRPEDFKFGKILGEGSFSTVVLARELATSREYAIKILEKRHIIKENKVPYVTRERDVMSRLDHPFFVKLYFTFQDDEKLYFGLSYAKNGELLKYIRKIGSFDETCTRFYTAEIVSALEYLHGKGIIHRDLKPENILLNEDMHIQITDFGTAKVLSPESKQARANSFVGTAQYVSPELLTEKSACKSSDLWALGCIIYQLVAGLPPFRAGNEYLIFQKIIKLEYDFPEKFFPKARDLVEKLLVLDATKRLGCEEMEGYGPLKAHPFFESVTWENLHQQTPPKLTAYLPAMSEDDEDCYGNYDNLLSQFGCMQVSSSSSSHSLSASDTGLPQRSGSNIEQYIHDLDSNSFELDLQFSEDEKRLLLEKQAGGNPWHQFVENNLILKMGPVDKRKGLFARRRQLLLTEGPHLYYVDPVNKVLKGEIPWSQELRPEAKNFKTFFVHTPNRTYYLMDPSGNAHKWCRKIQEVWRQRYQSHPDAAVQ

binding (PDK1^C21/23S (human) [2]): no binding | binding (PDK1^C21/23S (human) [3]): no binding
B3: PDK1^C21/23S (enzyme, UniProt O15530 1-556)
chain: MARTTSQLYDAVPIQSSVVLSSSPSPSMVRTQTESSTPPGIPGGSRQGPAMDGTAAEPRPGAGSLQHAQPPPQPRKKRPEDFKFGKILGEGSFSTVVLARELATSREYAIKILEKRHIIKENKVPYVTRERDVMSRLDHPFFVKLYFTFQDDEKLYFGLSYAKNGELLKYIRKIGSFDETCTRFYTAEIVSALEYLHGKGIIHRDLKPENILLNEDMHIQITDFGTAKVLSPESKQARANSFVGTAQYVSPELLTEKSACKSSDLWALGCIIYQLVAGLPPFRAGNEYLIFQKIIKLEYDFPEKFFPKARDLVEKLLVLDATKRLGCEEMEGYGPLKAHPFFESVTWENLHQQTPPKLTAYLPAMSEDDEDCYGNYDNLLSQFGCMQVSSSSSSHSLSASDTGLPQRSGSNIEQYIHDLDSNSFELDLQFSEDEKRLLLEKQAGGNPWHQFVENNLILKMGPVDKRKGLFARRRQLLLTEGPHLYYVDPVNKVLKGEIPWSQELRPEAKNFKTFFVHTPNRTYYLMDPSGNAHKWCRKIQEVWRQRYQSHPDAAVQ
